Not every detail of the peptide structures is certain; ends, links or a residue may be inferred.
System: synaptosomal high-affinity choline uptake (HACU)
Test: Barbiturate-induced cholinergic deficit in rats
Assay type: in vivo
Conditions: 10 mg/kg ip simultaneously with pentobarbital 60 mg/kg ip; HACU measured after 20 minutes of narcosis
Excerpt: This sodium-dependent uptake normally constitutes the limiting factor in acetyl choline synthesis.

Structure (SMILES): Cn1cnc(C[C@H](NC(=O)[C@@H]2CCC(=O)N2)C(=O)N2[C@H]3CC[C@H](C3)[C@H]2C(N)=O)c1 [Example 1, (S)PyroGlu-(S)(N^.tau. -Me)His-(1S,3S,4R)ABH-NH2]
- counteraction/inhibition of the fall in HACU induced by the barbiturate: 66%
